Data: PMC9632790
Results are given in words; binding and its absence hold for the method and conditions named. In cells and extracts the contact can be indirect. Binding calls can cover weak binding; strength is not graded here.

Chains of the proteins cited; added tags and fusions are not shown. Lines headed by an entry give the natural chain unless they say otherwise; changes in a name come on top.
UniProt A0A0H3C6I0: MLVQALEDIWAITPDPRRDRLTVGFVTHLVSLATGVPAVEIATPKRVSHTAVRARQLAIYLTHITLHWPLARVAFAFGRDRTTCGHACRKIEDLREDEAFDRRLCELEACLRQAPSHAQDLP

B1: ParB (protein, UniProt B8GW30 1-304)
chain: MESVVVGEPGMSEGRRGLGRGLSALLGEVDAAPAQAPGEQLGGSREAPIEILQRNPDQPRRTFREEDLEDLSNSIREKGVLQPILVRPSPDTAGEYQIVAGERRWRAAQRAGLKTVPIMVRELDDLAVLEIGIIENVQRADLNVLEEALSYKVLMEKFERTQENIAQTIGKSRSHVANTMRLLALPDEVQSYLVSGELTAGHARAIAAAADPVALAKQIIEGGLSVRETEALARKAPNLSAGKSKGGRPPRVKDTDTQALESDLSSVLGLDVSIDHRGSTGTLTITYATLEQLDDLCNRLTRGI

Biological target: FLAG-GafZ (Caulobacter crescentus)
Assay: co-IP; anti-FLAG magnetic beads (μMACS kit) on lysate of stationary-phase C. crescentus ΔrogA cells expressing FLAG-GafZ from its native promoter; lysis buffer 50 mM Tris-HCl pH 8, 150 mM NaCl, 1% Triton X-100, Benzonase; washes with IPP200 (200 mM NaCl, 0.1% NP-40); eluate blotted with anti-GafY, anti-ParB, anti-FLAG

Molecule | binding
GafY (from UniProt A0A0H3C6I0) | binds
B1 | no binding
